In PMC11957706:
These are yes or no findings as the source states them, for the method shown. Binding seen in cells or lysates may run through a third protein. A yes stands for co-enrichment or nearness to the bait. Other partners may have been found.

Amino acid sequences for entries named in this document (tags omitted).
UniProt Q13114: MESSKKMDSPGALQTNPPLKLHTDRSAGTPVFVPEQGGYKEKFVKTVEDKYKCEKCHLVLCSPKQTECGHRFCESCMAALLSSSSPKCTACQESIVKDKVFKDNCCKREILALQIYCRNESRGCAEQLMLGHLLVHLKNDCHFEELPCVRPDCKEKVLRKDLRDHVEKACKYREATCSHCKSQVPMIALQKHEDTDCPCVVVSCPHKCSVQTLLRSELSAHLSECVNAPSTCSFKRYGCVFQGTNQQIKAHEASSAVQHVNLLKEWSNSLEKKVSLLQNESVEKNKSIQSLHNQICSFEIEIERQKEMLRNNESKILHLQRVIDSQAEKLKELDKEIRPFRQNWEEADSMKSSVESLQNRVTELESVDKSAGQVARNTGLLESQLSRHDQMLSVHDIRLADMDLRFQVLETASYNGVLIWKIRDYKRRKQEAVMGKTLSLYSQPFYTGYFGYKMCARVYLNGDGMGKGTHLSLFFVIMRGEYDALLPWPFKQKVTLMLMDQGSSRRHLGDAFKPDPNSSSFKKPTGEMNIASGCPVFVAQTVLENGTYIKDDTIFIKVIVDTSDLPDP

Target: Flag-tagged TRAF3 (TNF receptor-associated factor 3) expressed in U87MG cells (UniProt Q13114)
Experiment: affinity purification with mass spectrometry; Flag-TRAF3 transfected into U87MG cells; lysate incubated with anti-Flag-Tag antibody; precipitate resolved by SDS-PAGE, bands seen by silver staining identified by tandem MS/MS

B1: enoyl-CoA hydratase 1 (ECH1), endogenous in U87MG cells (protein, UniProt Q13011 34-328)
chain: TGSSAQEEASGVALGEAPDHSYESLRVTSAQKHVLHVQLNRPNKRNAMNKVFWREMVECFNKISRDADCRAVVISGAGKMFTAGIDLMDMASDILQPKGDDVARISWYLRDIITRYQETFNVIERCPKPVIAAVHGGCIGGGVDLVTACDIRYCAQDAFFQVKEVDVGLAADVGTLQRLPKVIGNQSLVNELAFTARKMMADEALGSGLVSRVFPDKEVMLDAALALAAEISSKSPVAVQSTKVNLLYSRDHSVAESLNYVASWNMSMLQTQDLVKSVQATTENKELKTVTFSKL
  binding: binds
